## Primary screen of a compound library

Toxoplasma: 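Assay of Toxoplasma gondii numbers, read through their beta-galactosidase reporter with a colour substrate. Compounds at 10 µM. The record gives no direction; the compounds picked for IC50 retests had high values, so higher reads as fewer parasites. Of about 67,000 compounds tested this way, about 260 (0.38%) reached 50% or more in at least one test.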
Leishmania in macrophages: 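Cell assay of Leishmania donovani living inside macrophages; the read-out is not stated. Tested at 30 µM. Higher reads as stronger inhibition (inferred: compounds with an IC50 in retests scored well above the rest). Size under these conditions: about 69,000 compounds, about 1,000 of them at 50% or above in at least one test.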

Results are given as percent effect.
How 0% and 100% were set is not recorded. Most values in the screen are low, and negative values occur.
Compounds were drawn at random from those tested, without regard to their results.

With Cn1cnc2c1CCN(Cc1csc(-c3ccccc3F)n1)C2 the screen gave Toxoplasma: -8.764%; Leishmania in macrophages: 3.701%. Cc1nc(C)n(CC2CN(c3ncnc4[nH]ccc34)CCO2)n1 (centres unmarked) read Toxoplasma: -1.519%; Leishmania in macrophages: -5.028%. CSCCC1c2nc[nH]c2CCN1Cc1cncn1C (centres unmarked) read Leishmania in macrophages: -9.836%. With O=C(O)C(F)(F)F.O=C(O)C(F)(F)F.[H][C@@]12CCN(Cc3ccco3)[C@]1([H])CC[C@@H](C(=O)NCCc1ccncc1)O2 the screen gave Toxoplasma: 7.268%; Leishmania in macrophages: 14.83%. For CC(c1ccncn1)N(C)S(=O)(=O)NCc1ccccc1 (centres unmarked) the result was Toxoplasma: 13.41%; Leishmania in macrophages: -16.64%. [H][C@]12CCC[C@@]1(COC)CN(C(=O)Cc1ccco1)C2 gave Toxoplasma: -32.22%; Leishmania in macrophages: 23.72%. Result for COCCNC(=O)C(C)N1CCN(C)CC1.O=C(O)C(=O)O (centres unmarked) was Leishmania in macrophages: 17.67%. For [H][C@]12CC[C@]([H])(CN(S(=O)(=O)N(C)C)C1)N(C(=O)c1cnc(C)nc1C)C2 the result was Toxoplasma: -1.982%; Leishmania in macrophages: -0.03306%.

O=C(O)C(F)(F)F.O=C(O)C(F)(F)F.c1cnc(NCc2ncn3c2CN(Cc2cccnc2)CCC3)nc1 gave Toxoplasma: -7.367%; Leishmania in macrophages: 17.15%. COCCN(CC1CCCO1)C(=O)CCNC(=O)c1ccccc1F (centres unmarked) read Toxoplasma: -1.474%; Leishmania in macrophages: 16.47%. With [H][C@@]12CCN(Cc3cnn(C)c3)C[C@@]1([H])[C@H](C(=O)Nc1cnccn1)CCO2 the screen gave Toxoplasma: -16.49%; Leishmania in macrophages: -2.773%. For COc1cc(C2CC(=O)Nc3c2c(=O)[nH]n3C2CCCC2)ccc1O (centres unmarked) the result was Toxoplasma: -20.81%; Leishmania in macrophages: -3.622%. For COc1c(CNCc2nnc3n2CCCCC3)c(C)nn1C.Cl the result was Toxoplasma: 7.16%; Leishmania in macrophages: 5.882%. With CC(C#N)CN(C)Cc1c(Cl)ccc2cccnc12 (centres unmarked) the screen gave Toxoplasma: 0.8706%; Leishmania in macrophages: 13.09%. CNc1nc2c(s1)C(c1c(Cl)cccc1Cl)CC(=O)N2 (centres unmarked) gave Toxoplasma: 0.05028%; Leishmania in macrophages: 29.51%. With O=C(CCn1cccn1)NCCOc1ncc(Cl)cc1Cl the screen gave Toxoplasma: -12.82%; Leishmania in macrophages: 33.4%.

CCOc1ccc(NC(=O)C2OC(c3cccs3)=NN2C(C)=O)cc1 (centres unmarked) read Toxoplasma: 0.3496%; Leishmania in macrophages: -21.12%. Result for COc1cc(OC)cc(N2CCC(NCc3cc[nH]n3)C2)c1 (centres unmarked) was Toxoplasma: 2.01%; Leishmania in macrophages: 11.55%. Cc1cc(C(=O)N[C@H]2CC[C@@]3(CCC(=O)N3C)CC2)no1 gave Toxoplasma: -32.53%; Leishmania in macrophages: 3.656%. COc1ccc(CN(C)C(=O)NC(C)c2nncn2C)cc1F (centres unmarked) read Toxoplasma: 7.059%; Leishmania in macrophages: 15.85%. CCC(O)CN1CCN(C(=O)Cc2cc(C)ccc2OC)CC1 (centres unmarked) gave Toxoplasma: 16.53%; Leishmania in macrophages: -5.708%. With CCOCc1ccc(CNc2nc(OC)ncc2Cl)cc1 the screen gave Toxoplasma: 16.02%; Leishmania in macrophages: 0.02753%. CCCn1cc(NC(=O)NCC2CCS(=O)(=O)C2)nn1 (centres unmarked) gave Toxoplasma: 12.29%; Leishmania in macrophages: -10.33%. Result for CCOC(=O)NC(CNC(=O)c1ccccn1)CC(C)C (centres unmarked) was Toxoplasma: 3.775%; Leishmania in macrophages: 9.436%.

O=C(CSc1ccncc1)NC1CC(=O)N(CCc2ccccc2)C1 (centres unmarked) gave Toxoplasma: 2.027%; Leishmania in macrophages: 1.719%. COc1cccnc1NC(=O)COC1CCCC1 gave Toxoplasma: -25.37%; Leishmania in macrophages: -10.09%. For [H][C@@]12CN(c3ccccc3)C(=O)N1CCN(C1CCN(C(C)=O)CC1)C2 the result was Toxoplasma: -7.387%; Leishmania in macrophages: 8.504%. CSc1nc(C2CC2)nc(C)c1C(=O)NCc1ccco1 gave Toxoplasma: -3.508%; Leishmania in macrophages: 0.1308%. COc1ccc(Cl)cc1-n1nc(C2CCCC2)nc1Cn1cnnn1 gave Toxoplasma: -9.738%; Leishmania in macrophages: -4.866%. Cc1ccc(C)c(CC(=O)NC2CCS(=O)(=O)CC2)c1 gave Toxoplasma: -8.069%; Leishmania in macrophages: 13.59%. With O=C(O)C(F)(F)F.O=C(O)C(F)(F)F.[H][C@@]12CCN(C3CCCC3)C[C@]1(C(=O)NCc1ccccn1)CCO2 the screen gave Toxoplasma: 11.26%; Leishmania in macrophages: 33.12%. For O=C(O)C(F)(F)F.O=C(O)C(F)(F)F.c1cncc(C2COC3(CCN(CC4CCOCC4)CC3)C2)c1 (centres unmarked) the result was Toxoplasma: 9.135%; Leishmania in macrophages: 7.191%.

Result for [H][C@@]12CCN(C(=O)NCC)C[C@]1([H])CCN(CC(N)=O)C(=O)C2 was Toxoplasma: -6.306%; Leishmania in macrophages: -13.76%.

Source: ChEMBL document CHEMBL3988442, “University of Dundee, Small-Polar-MMV Screening Library” (2021).